In the supplement of paper PMC3334620:
In all, about 33,000 sequences were measured (“E-score (-0.5 to 0.5)”: median about -0.016, highest 2% from about 0.3 on). Some of the results follow.

Target: T1, Yer184c (UniProt P39961)
T1 sequence: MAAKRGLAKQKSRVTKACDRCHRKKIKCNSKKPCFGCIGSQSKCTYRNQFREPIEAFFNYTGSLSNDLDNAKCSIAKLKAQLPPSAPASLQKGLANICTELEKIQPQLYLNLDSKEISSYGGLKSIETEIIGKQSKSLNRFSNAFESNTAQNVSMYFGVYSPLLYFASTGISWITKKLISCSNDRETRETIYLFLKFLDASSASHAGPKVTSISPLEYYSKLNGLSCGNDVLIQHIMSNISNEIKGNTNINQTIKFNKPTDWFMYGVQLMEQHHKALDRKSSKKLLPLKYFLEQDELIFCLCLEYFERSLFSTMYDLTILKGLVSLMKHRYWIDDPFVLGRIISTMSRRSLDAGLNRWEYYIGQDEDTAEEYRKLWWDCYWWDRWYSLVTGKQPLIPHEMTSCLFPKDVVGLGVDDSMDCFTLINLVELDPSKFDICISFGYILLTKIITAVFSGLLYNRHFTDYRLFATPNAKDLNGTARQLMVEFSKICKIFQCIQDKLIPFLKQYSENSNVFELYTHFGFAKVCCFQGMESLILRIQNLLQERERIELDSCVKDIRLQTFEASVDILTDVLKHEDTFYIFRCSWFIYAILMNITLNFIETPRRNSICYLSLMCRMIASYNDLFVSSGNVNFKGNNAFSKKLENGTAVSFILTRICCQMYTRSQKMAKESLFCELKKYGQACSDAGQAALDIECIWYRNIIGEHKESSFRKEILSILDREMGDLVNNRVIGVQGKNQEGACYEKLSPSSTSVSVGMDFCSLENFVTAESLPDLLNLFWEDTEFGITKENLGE
Experiment: PBM E-score (8-mer binding enrichment) (E-score (-0.5 to 0.5)); higher = stronger / more preferred TF binding
Conditions: protein concentration: 100 nM; construct: GST-full length
Experimental: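 Universal 'all 10-mer' protein binding microarrays (Agilent AMADID 015681) probed with GST-tagged S. cerevisiae TFs (full-length or DBD) made by in vitro transcription/translation (PURExpress), about 100-200 nM. Bound TF was detected with fluorescent anti-GST. Each ungapped 8-mer (which stands for itself and its reverse complement) is scored by the PBM enrichment score (E-score), a modified Wilcoxon-Mann-Whitney statistic from -0.5 to +0.5, computed with the Universal PBM Analysis Suite. Scale: above 0.35 generally sequence-specific binding.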

Row | Sequence | PBM E-score
1 | TAGGCAGA | 0.198
2 | AGGTCCTC | -0.11
3 | AGCGTGAA | -0.162
4 | ATTTACGA | 0.194
5 | GAGTGATC | -0.11
6 | ATCTGACC | 0.21
7 | CCCTTAAA | -0.0406
8 | ATTTCCAG | 0.0278
9 | CCCATATC | -0.167
10 | GCTTCTAA | -0.189
11 | CGCAACAA | -0.00856
12 | AAAACAAC | -0.0119
13 | CCTCCATC | -0.235
14 | CAGGTTGA | -0.207
15 | CACATAGG | -0.256
16 | ATTGCTTC | 0.00217
17 | AAAATAAG | 0.106
18 | CGAACGCA | 0.299
19 | GCGCCTCA | -0.109
20 | CCATGCAG | -0.124
21 | ATCGCGGC | 0.213
22 | CACTCAAG | -0.257
23 | ACATTTCT | 0.145
24 | AGGGCAAC | -0.00172
25 | AACCGGCA | 0.238

Row | Sequence | PBM E-score
26 | GCTTAGAA | -0.0306
27 | AATCCATC | -0.0869
28 | CTGTAGCA | -0.154
29 | CAAAGTTA | 0.0674
30 | ATCTTAAT | 0.00364
31 | CTGGTTAC | -0.239
32 | GGCTCGGA | 0.187
33 | CAAGCGAA | -0.114
34 | TCGGCCCA | 0.265
35 | ATTTGGGG | -0.185
36 | AGCAACTA | 0.19
37 | GAGGCGAC | -0.128
38 | CCTTAGTC | -0.202
39 | TCGTTACA | 0.00328
40 | GGTAGGGA | -0.192
41 | AAGGCCGG | 0.318
42 | ACTTACAT | -0.00026
43 | AGAAACAC | 0.0558
44 | CCCGCTAC | -0.00669
45 | GACGTCAC | -0.206
46 | AAAAGGAT | 0.143
47 | ACCATAAC | 0.0317
48 | CCTCTGTC | -0.178
49 | CACGTAAA | -0.00961
50 | AGCGTGCC | -0.152

Row | Sequence | PBM E-score
51 | CTCAGTAC | -0.00937
52 | ACTGGCTA | -0.119
53 | GAGTTCCA | -0.0604
54 | CGCCCCAA | -0.0397
55 | GCTGTCCC | -0.111
56 | CGTTTCTC | -0.00246
57 | AGGAGTAG | 0.0149
58 | AGATAGGA | -0.0667
59 | ACATCGAA | 0.0282
60 | CAACAAGA | 0.0211
61 | AGGACCAA | -0.0299
62 | CCACCTAC | -0.322
63 | CATAAAAG | 0.0882
64 | AACTCCAA | 0.0187
65 | GGGCGGGA | 0.0538
66 | AGCGTTTG | -0.106
67 | CGGAGTGC | 0.226
68 | ACAGGGGT | -0.411
69 | AGCAGCAA | 0.0416
70 | GCAGGCAC | -0.315
71 | ACGACCGT | -0.267
72 | AGGATCGC | -0.0928
73 | CGAGTACA | 0.0359
74 | ACCAACAC | 0.0322
75 | CCGTCCAA | -0.024

Reprinted at random: 7 entries already listed
Row | Sequence | PBM E-score
63 | CATAAAAG | 0.0882
59 | ACATCGAA | 0.0282
57 | AGGAGTAG | 0.0149
52 | ACTGGCTA | -0.119
56 | CGTTTCTC | -0.00246
55 | GCTGTCCC | -0.111
70 | GCAGGCAC | -0.315

Part of the list above, with tabs.
Row	Sequence	PBM E-score
47	ACCATAAC	0.0317
65	GGGCGGGA	0.0538

Going on with the list:

Row | Sequence | PBM E-score
76 | ACTACCCT | -0.329
77 | ACCCTTAA | -0.108
78 | AGCTGCAC | -0.0993
79 | GACTCCAC | -0.343
80 | CTAAGAAA | 0.198
81 | AACTCACA | 0.0709
82 | CCAACCAC | -0.0234
83 | TCGGGCCA | 0.0421
84 | ACTCTTTG | -0.189
85 | GTAATCAC | 0.0256
86 | AGCGCACA | -0.207
87 | CACGCGTG | 0.0284
88 | TACCCAGA | -0.0631
89 | CCGATCAG | 0.159
90 | CGTAGTTA | 0.174
91 | ATCGGGAA | 0.236
92 | CCCCGTTC | -0.181
93 | AACCGTAC | -0.0653
94 | CACCGAAC | 0.143
95 | ACGTTAAT | 0.117
96 | GATAAGCC | 0.0247
97 | ACCCACCG | -0.11
98 | CCGCTCCA | -0.0411
99 | CCCGTAAA | 0.0406
100 | AGGCTCCA | -0.233

Row | Sequence | PBM E-score
101 | CATATTAG | 0.105
102 | GACCGGTC | 0.195
103 | GTATGTAA | 0.0628
104 | GACCTTCC | -0.131
105 | CACAATTA | -0.0124
106 | ACACGGAC | 0.212
107 | ATTCCTGG | -0.138
108 | GCGGCCAA | -0.0147
109 | ATTACTAG | 0.0017
110 | GAAGGGGA | -0.201
111 | ACATGGGA | -0.0714
112 | GGCTTGTA | -0.219
113 | CGGATCAC | 0.277
114 | GCCTTACA | -0.205
115 | AGACAGCC | -0.136
116 | CCCTTTAA | 0.0626
117 | TATACGGA | 0.136
118 | AGTAAGCG | 0.0285
119 | AAGTTCTC | 0.0984
120 | TATGCTAA | 0.00189
121 | CCACCGTC | -0.225
122 | AAGTACCG | 0.189
123 | CACGCCTG | -0.275
124 | CTGAACGA | -0.0934
125 | ATGCCGTA | 0.196

Row | Sequence | PBM E-score
126 | CGCATTGC | 0.108
127 | AACCGATC | 0.0319
128 | GTCACATA | 0.127
129 | CTCTCTCA | -0.085
130 | CATCTCAC | -0.0202
131 | CTCCGGCC | 0.125
132 | CACACACC | -0.0823
133 | AAGGATTG | 0.0885
134 | ACATCGTG | -0.0241
135 | AGCACCAA | -0.0172
136 | CCATCCGC | -0.0867
137 | AAGTTTGT | 0.188
138 | TGGCGTAA | -0.0515
139 | CCTCAAGG | -0.142
140 | CAAGGCAG | -0.269
141 | AGGCGTGA | -0.181
142 | CGATCCAC | -0.197
143 | ATGCAGGC | -0.185
144 | AAAGAGGC | -0.258
145 | ACTGACAC | -0.0181
146 | AAGGGAAT | -0.178
147 | ATTCCACC | 0.205
148 | GAGCCGAA | 0.372
149 | ATCGAAGA | 0.214
150 | GCCCCCAC | -0.344

Row | Sequence | PBM E-score
151 | CTCCTCTC | -0.281
152 | TACAGCCA | -0.153
153 | TTCCACAA | 0.21
154 | CGTAATAA | -0.0248
155 | CGCACTAA | 0.0791
156 | ACGAGGAC | -0.0738
157 | CGTATCGC | -0.00721
158 | AGCTACAC | 0.00807
159 | CGGCTGAC | 0.172
160 | CTTCTCGC | -0.0175
161 | CGGTTGCA | -0.00495
162 | ACGAATCG | 0.126
163 | CGGAGCCG | 0.309
164 | GATACAGA | 0.11
165 | AGCGAACG | -0.0892
166 | ATTTCGCC | 0.162
167 | CGTTTCTA | 0.0816
168 | ATCATGAG | -0.0705
169 | GATACCTA | 0.021
170 | CCCACGAA | -0.0234
171 | CTTAGGAC | -0.147
172 | TACTAGCA | 0.083
173 | AGTGTTTG | 0.00995
174 | TCCAGTAA | -0.111
175 | ACATTTAG | -0.136

Row | Sequence | PBM E-score
176 | TCGATCGA | 0.177
177 | AATCCTGG | -0.137
178 | GATAGGTA | -0.00859
179 | GCTCGCGA | 0.0684
180 | CGCCGTGC | 0.0229
181 | CATGCCAG | -0.161
182 | GTTCTCTA | 0.0528
183 | CGCTTAGA | -0.255
184 | GAAGGTGC | -0.205
185 | AAACCCTT | -0.201
186 | GATATCTA | 0.00957
187 | CATCGCCA | -0.0356
188 | AGCGTTAT | -0.102
189 | ACGATGTC | -0.0561
190 | AACTGGCC | -0.0997
191 | CCAAGATA | -0.0391
192 | ACACCTAT | -0.124
193 | TGTTAGAA | 0.0199
194 | GGTTTCAC | 0.0748
195 | GTAACTTA | 0.11
196 | GGCTGGGA | -0.129
197 | GTATAAAA | 0.325
198 | GCCTCTCA | -0.0722
199 | CATCCCGA | 0.152
200 | TCGTTAGA | 0.00759

Row | Sequence | PBM E-score
201 | CTGTTGGC | -0.181
202 | ACAACATG | 0.00089
203 | AGTTCTAT | -0.0389
204 | ATGCGGAG | -0.178
205 | ACGAGTGA | -0.0915
206 | CGATACTC | -0.087
207 | CCGTGAGG | -0.119
208 | CCCAGGCA | -0.139
209 | AACCTCTC | -0.274
210 | AGACGTAC | 0.0628
211 | AACGGCCG | 0.3
212 | CAGAAGGG | -0.166
213 | ACGCCACG | -0.133
214 | GACACACA | 0.0256
215 | ATCCGCCC | -0.114
216 | CCGCCAGA | 0.0573
217 | AACACCTA | -0.173
218 | CACGCAAC | 0.17
219 | ACGGTCAC | -0.119
